Measurements: patent US20260201029A1
These are yes or no findings as the source states them, for the method shown. Some entries that bind do so weakly or less than the wild type.

Amino acid sequences for entries named in this document (tags omitted).
UniProt Q9NZD1: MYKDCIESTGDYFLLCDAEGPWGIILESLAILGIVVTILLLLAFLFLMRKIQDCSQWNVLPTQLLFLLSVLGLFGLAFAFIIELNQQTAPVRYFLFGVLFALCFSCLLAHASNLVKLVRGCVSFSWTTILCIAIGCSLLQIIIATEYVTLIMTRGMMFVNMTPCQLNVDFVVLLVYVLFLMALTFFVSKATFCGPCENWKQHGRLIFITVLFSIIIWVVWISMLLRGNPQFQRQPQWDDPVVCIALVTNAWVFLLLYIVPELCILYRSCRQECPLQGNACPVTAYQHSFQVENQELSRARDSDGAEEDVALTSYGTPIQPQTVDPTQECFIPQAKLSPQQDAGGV

Tests used:
[1] = molecular target: human GPRC5D (G-protein coupled receptor family C group 5 member D) (human) (UniProt Q9NZD1); assay: flow cytometry, time-course cell binding on H929 cells, antibody at 10 nM (panel title; legend paragraph 51 says 5 nM), 37 C, read at 1, 3, 5 and 24 h, AF647 anti-human IgG Fc detection, MFI
[2] = molecular target: human GPRC5D (G-protein coupled receptor family C group 5 member D) (human) (UniProt Q9NZD1); assay: flow cytometry, time-course cell binding on MM.1R cells, antibody at 2 nM (panel title; legend paragraph 51 says 0.5 nM), 37 C, read at 1, 3, 5 and 24 h, AF647 anti-human IgG Fc detection, MFI
[3] = molecular target: human GPRC5D (G-protein coupled receptor family C group 5 member D) (human) (UniProt Q9NZD1); assay: flow cytometry, time-course cell binding on H929 cells, antibody at 2 nM (panel title; legend paragraph 51 says 0.5 nM), 37 C, read at 1, 3, 5 and 24 h, AF647 anti-human IgG Fc detection, MFI
[4] = molecular target: human GPRC5D (G-protein coupled receptor family C group 5 member D) (human) (UniProt Q9NZD1); assay: flow cytometry, time-course cell binding on MM.1R cells, antibody at 50 nM (panel title), 37 C, read at 1, 3, 5 and 24 h, AF647 anti-human IgG Fc detection, MFI
[5] = molecular target: human GPRC5D (G-protein coupled receptor family C group 5 member D) (human) (UniProt Q9NZD1); assay: time-course flow cytometry on H929 and MM.1R cells, 37 C
[6] = molecular target: human GPRC5D (G-protein coupled receptor family C group 5 member D) (human) (UniProt Q9NZD1); assay: flow cytometry, time-course cell binding on H929 cells, antibody at 50 nM (panel title), 37 C, read at 1, 3, 5 and 24 h, AF647 anti-human IgG Fc detection, MFI
[7] = molecular target: human GPRC5D (G-protein coupled receptor family C group 5 member D) (human) (UniProt Q9NZD1); assay: flow cytometry, time-course cell binding on MM.1R cells, antibody at 10 nM (panel title; legend paragraph 51 says 5 nM), 37 C, read at 1, 3, 5 and 24 h, AF647 anti-human IgG Fc detection, MFI

Measured: binding

B1: GP5B82 binder (antibody, V domains shown)
VH: QVQLVESGGGVVQPGRSLRLSCAASGFTFSNYGMHWVRQAPGKGLEWVAFIWYDGSNKYYADSVKGRFTISRDNSKNTLYLQMNSLRAEDTAVYYCAPITGYSTRWGDYWGQGTLVTVSS
VL: DIQMTQSPSSLSASVGDRVTITCRASQGIRNDLGWYQQKPGKAPKRLIYAASSLQSGVPSRFSGSGSGTEFTLTISSLQPEDFATYYCLQRNTYPLTFGGGTKVEIK
binds: all assays above
